The nature of this assay: qHTS Assay for Lipid Storage Modulators in Drosophila S3 Cells.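 For cell number change: cells counted by Cell Tracker Red CMTPX staining in the red channel.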 As to conditions: BODIPY lipid droplet fluorescence, 18-24 h; for cell number change: measured here: cell count max response, cells fed with added oleic acid. The method in brief: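 Drosophila S3 cells loaded with oleic acid (400 uM, as added) and compounds at several concentrations; lipid droplets imaged by 488-nm laser-scanning cytometry, 500–530 nm intensity and object ratio to cell channel. Percent activity normalized to 20 uM Triacsin C.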

The mark [1] stands for this setting: measured here: lipid fluorescence (Fed channel) AC50, cells fed with added oleic acid.
Setting [2] is: measured here: cell number channel AC50, cells fed with added oleic acid.

The structures appear in SMILES notation. The list shows a part of the results. Shown are side measurements of this screen, not its main read-out; they come without a call. Compounds called inactive in the main read-out are mostly missing here. Potencies come from curve fits of mixed quality, noted in brackets.

By AC50 is commonly meant the midpoint of the concentration-response curve, whichever way the signal moves. For `CCOc1ccc(C2C(C#N)=C(N)SC(N)=C2C#N)cc1OC`, the cell number change was 0.37%. Also, the half-maximal activity concentration (AC50) under setting [1] was 18.4 µM [rising, single point].

Consider `O=C(Nc1nccs1)c1ccc(Cl)c(S(=O)(=O)N2CCOCC2)c1`, for which the cell number change worked out at 3.82%. Also, under setting [2], the AC50 is 1.64 µM [rising, partial curve]. Moreover, the AC50 under setting [1] is 1.64 µM [rising, partial curve].

For `CC(=O)c1c(C)nc(-c2ccc(Cl)cc2)nc1NC(=O)C(C)C`, the cell number change turned out to be 292%. In addition, under setting [2], the concentration at half-maximal activity (AC50) is 29.1 µM [rising, single point].

`Cc1ccc(-c2nnc3n2N=C(c2ccc(Br)cc2)CS3)cc1`: the cell number change was 3.69%.

For `CN(C)N1C(N)=C(C#N)C(c2ccc3c(c2)OCO3)C2=C1CCCC2=O` (stereo unspecified), the cell number change is 54.6%. In addition, under setting [2], the concentration at half-maximal activity (AC50) was 23.1 µM [rising, partial curve].

With `Cc1cc(-c2ccccc2)nc(N2CCN(c3ccccn3)CC2)n1`, the cell number change is 10.5%. Also, the AC50 under setting [2] was 2.31 µM [rising, single point]. In addition, the AC50 under setting [1] is 6.51 µM [falling, single point].

Regarding `Cc1cc(C)c(OCCN2CC(C)OC(C)C2)c(Br)c1` (stereo unspecified), the cell number change was found to be 26.5%.

As for `CN1CN=C(NS(=O)(=O)c2ccc([N+](=O)[O-])cc2)NC1`, the cell number change was 30.3%. The half-maximal activity concentration (AC50) under setting [2] was 0.13 µM [rising, single point].

On to `C/C(=N\NC(=O)Cn1nc(C)c(Br)c1C)c1cccs1`, for which the cell number change was -32.8%. The AC50 under setting [2] is 5.17 µM [falling, full curve]. In addition, the AC50 under setting [1] is 0.731 µM [falling, full curve].

Turning to `O=C(NCCN1CCCC1)c1ccc(Br)cc1`, the cell number change was -3.28%. The AC50 under setting [1] was 0.164 µM [rising, full curve, poor fit].

As to `Cc1cnc(C(=O)OCC(=O)Nc2sc3c(c2C#N)CCC3)cn1`, the cell number change was 0.534%. Besides, under setting [1], the AC50 is 5.8 µM [rising, partial curve].

Take `Cc1ccc(NC(=S)N2CCN(C3CCCCC3)CC2)cc1`: the cell number change is -25.5%.

Turning to `O=C(CSc1nc(-c2ccccc2)nc2ccccc12)Nc1nccs1`, the cell number change is -31.2%.

`Cc1ccc([N+](=O)[O-])c(OCc2ncc(Cl)n2C)c1`: the cell number change was 18.5%. In addition, the concentration at half-maximal activity (AC50) under setting [1] was 0.0731 µM [rising, partial curve, poor fit].

`COc1ccc(C)cc1NC(=O)CCN1CC(C)OC(C)C1` (stereo unspecified): the cell number change was 53.7%. For the same compound, the AC50 under setting [2] was 1.46 µM [rising, partial curve]. Moreover, under setting [1], the half-maximal activity concentration (AC50) was 29.1 µM [rising, single point].

Regarding `COC(=O)c1cc(OC)c(OC)cc1NC(=O)CCNC(=O)c1ccco1`, the cell number change was -21.9%.

With `Nc1cccc(S(=O)(=O)Nc2ccc(SC(F)F)cc2)c1`, the cell number change was determined as 28.7%. Also, under setting [1], the AC50 is 29.1 µM [rising, single point].

Take `COc1ccc(C(=O)Sc2nncc3ccccc23)cc1`: the cell number change worked out at 72.8%. Also, the AC50 under setting [2] is 29.1 µM [rising, single point]. For the same compound, under setting [1], the concentration at half-maximal activity (AC50) was 29.1 µM [rising, single point].

The values are drawn from PubChem BioAssay AID2685 (National Center for Advancing Translational Sciences (NCATS), 2010).
